For assay [1], the target named is HA-tagged FRMD6 (FERM domain-containing protein 6) (UniProt Q96NE9). Put plainly: co-IP; IMR90 cells transfected with HA-FRMD6 alone, with or without DOX for 48 h; RIPA lysates immunoprecipitated with anti-HA beads, immunoblotting for endogenous proteins. A general note: Immunoblotting shows a protein as a band on a membrane.
The next assay has as its target T1, FLAG-tagged MST1 (UniProt Q13043).
T1 sequence: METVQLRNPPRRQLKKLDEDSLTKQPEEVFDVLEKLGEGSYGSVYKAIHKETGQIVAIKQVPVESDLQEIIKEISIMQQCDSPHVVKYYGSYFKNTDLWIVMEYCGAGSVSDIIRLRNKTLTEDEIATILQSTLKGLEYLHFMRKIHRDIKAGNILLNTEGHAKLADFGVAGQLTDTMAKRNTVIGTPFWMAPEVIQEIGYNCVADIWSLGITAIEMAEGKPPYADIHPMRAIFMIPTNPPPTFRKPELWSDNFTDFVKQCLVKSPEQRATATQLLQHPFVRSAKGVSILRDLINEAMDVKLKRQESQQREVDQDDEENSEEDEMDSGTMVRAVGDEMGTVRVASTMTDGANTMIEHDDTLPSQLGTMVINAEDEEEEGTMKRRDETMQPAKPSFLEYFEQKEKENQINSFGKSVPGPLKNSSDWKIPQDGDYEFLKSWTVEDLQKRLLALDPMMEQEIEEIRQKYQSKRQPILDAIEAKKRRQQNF
Put plainly: co-IP; IMR90 cells co-transfected with HA-FRMD6 and FLAG-MST1; RIPA lysates immunoprecipitated with anti-HA or anti-FLAG antibody-coated agarose beads, immunoblotting.

Protein sequences, listed by entry. Tags and fused reporters are not part of them.
UniProt Q96NE9: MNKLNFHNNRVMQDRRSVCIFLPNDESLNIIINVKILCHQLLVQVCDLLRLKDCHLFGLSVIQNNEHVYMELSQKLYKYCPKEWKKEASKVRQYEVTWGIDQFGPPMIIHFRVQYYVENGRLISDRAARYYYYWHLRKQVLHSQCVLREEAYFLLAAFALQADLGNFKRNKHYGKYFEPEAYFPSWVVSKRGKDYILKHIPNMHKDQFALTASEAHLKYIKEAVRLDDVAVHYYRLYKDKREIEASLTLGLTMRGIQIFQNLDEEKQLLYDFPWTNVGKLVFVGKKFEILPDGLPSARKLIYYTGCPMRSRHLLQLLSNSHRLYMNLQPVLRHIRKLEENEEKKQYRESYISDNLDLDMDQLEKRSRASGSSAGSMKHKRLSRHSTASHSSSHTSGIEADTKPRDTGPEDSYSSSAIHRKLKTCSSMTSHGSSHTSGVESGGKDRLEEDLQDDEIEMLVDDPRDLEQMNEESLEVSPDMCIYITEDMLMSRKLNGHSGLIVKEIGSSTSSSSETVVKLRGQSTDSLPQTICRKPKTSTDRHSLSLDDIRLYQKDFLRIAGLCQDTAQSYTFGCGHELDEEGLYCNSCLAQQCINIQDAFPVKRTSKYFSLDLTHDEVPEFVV
UniProt P35240: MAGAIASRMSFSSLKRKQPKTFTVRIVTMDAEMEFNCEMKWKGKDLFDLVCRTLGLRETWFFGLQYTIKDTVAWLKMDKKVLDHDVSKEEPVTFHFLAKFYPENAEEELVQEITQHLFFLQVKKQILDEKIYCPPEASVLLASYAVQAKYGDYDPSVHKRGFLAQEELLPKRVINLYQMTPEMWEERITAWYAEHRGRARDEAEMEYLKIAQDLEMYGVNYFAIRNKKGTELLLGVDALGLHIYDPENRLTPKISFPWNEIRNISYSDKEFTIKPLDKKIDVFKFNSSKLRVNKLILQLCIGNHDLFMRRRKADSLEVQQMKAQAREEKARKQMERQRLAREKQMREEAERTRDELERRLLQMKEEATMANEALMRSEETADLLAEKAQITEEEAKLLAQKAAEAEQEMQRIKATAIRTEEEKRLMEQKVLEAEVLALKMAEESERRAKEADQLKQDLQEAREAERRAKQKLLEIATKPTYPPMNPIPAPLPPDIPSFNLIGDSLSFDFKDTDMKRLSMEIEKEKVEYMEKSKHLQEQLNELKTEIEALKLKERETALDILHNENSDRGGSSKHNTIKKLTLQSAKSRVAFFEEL

These are yes or no findings as the source states them, for the method shown. In cells and extracts the contact can be indirect. Some entries that bind do so weakly or less than the wild type. For some assays here: Where a sequence is shown, tags or fusion partners need not be part of it.

Data on two substances can be found in paper PMC11519602.

Turning to “NF2 (Merlin, neurofibromin 2) (from UniProt P35240 1-595)”, in assay [1], the binding result is “no binding”.

For the substance “HA-tagged FRMD6 (FERM domain-containing protein 6) (from UniProt Q96NE9 1-622)”, the binding result with FLAG-tagged MST1 was “binds”.
